Reference: PMC4792963
No constants are given. Whether binding was seen depends on the method and setting. Binding seen in cells or lysates may run through a third protein. Some entries that bind do so weakly or less than the wild type.

Experiments:
COMMD1-GST = COMMD1-GST (UniProt Q8N668); assay: pull-down; HEK293T cells co-transfected with both partners; GST-tagged protein held on Glutathione Sepharose 4B; cells mainly lysed in NP-40 buffer (0.4 M NaCl, 0.1% NP-40, 10 mM Tris-HCl pH 8.0, 1 mM EDTA); immunoblot
[1] = target: Full-length Flag-tagged LDLR receptor (UniProt P01130); assay: co-IP; HEK293T transfected with Flag-LDLR vector; immunoprecipitation with rabbit anti-Flag antibody; endogenous COMMD1 detected by immunoblot

Substance | binding (COMMD1-GST) | binding [1]
Full-length Flag-tagged LDLR receptor (from UniProt P01130 22-860) | binds | 
endogenous COMMD1 (from UniProt Q8N668 1-190) |  | binds
